Measurements from paper PMC8555683.
These are yes or no findings as the source states them, for the method shown. In cells and extracts the contact can be indirect. Some binding calls cover weakened binding; strength is not graded here. Tags and fused reporters may be left off the sequences shown.

The chains behind the UniProt entries cited, without tags or fusion partners.
UniProt P35222: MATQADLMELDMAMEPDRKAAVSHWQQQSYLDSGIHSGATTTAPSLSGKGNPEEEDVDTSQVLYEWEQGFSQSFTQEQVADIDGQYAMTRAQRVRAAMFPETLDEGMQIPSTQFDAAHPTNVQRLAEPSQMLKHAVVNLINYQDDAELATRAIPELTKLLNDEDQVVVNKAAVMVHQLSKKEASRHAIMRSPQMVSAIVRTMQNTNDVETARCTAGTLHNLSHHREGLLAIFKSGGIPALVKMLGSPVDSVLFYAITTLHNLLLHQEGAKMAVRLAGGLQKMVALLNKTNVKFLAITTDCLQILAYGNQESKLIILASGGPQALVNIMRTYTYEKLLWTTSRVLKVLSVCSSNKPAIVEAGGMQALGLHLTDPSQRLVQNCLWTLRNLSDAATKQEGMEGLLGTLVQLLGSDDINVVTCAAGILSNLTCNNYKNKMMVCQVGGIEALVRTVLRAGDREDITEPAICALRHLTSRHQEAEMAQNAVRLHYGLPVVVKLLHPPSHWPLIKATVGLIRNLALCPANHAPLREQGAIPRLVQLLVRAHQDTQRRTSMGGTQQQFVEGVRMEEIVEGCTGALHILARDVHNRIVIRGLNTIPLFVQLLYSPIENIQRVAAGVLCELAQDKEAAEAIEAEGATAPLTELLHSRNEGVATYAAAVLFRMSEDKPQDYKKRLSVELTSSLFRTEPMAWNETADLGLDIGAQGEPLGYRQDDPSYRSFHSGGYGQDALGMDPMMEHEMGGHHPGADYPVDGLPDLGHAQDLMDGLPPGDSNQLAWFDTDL
UniProt O15169: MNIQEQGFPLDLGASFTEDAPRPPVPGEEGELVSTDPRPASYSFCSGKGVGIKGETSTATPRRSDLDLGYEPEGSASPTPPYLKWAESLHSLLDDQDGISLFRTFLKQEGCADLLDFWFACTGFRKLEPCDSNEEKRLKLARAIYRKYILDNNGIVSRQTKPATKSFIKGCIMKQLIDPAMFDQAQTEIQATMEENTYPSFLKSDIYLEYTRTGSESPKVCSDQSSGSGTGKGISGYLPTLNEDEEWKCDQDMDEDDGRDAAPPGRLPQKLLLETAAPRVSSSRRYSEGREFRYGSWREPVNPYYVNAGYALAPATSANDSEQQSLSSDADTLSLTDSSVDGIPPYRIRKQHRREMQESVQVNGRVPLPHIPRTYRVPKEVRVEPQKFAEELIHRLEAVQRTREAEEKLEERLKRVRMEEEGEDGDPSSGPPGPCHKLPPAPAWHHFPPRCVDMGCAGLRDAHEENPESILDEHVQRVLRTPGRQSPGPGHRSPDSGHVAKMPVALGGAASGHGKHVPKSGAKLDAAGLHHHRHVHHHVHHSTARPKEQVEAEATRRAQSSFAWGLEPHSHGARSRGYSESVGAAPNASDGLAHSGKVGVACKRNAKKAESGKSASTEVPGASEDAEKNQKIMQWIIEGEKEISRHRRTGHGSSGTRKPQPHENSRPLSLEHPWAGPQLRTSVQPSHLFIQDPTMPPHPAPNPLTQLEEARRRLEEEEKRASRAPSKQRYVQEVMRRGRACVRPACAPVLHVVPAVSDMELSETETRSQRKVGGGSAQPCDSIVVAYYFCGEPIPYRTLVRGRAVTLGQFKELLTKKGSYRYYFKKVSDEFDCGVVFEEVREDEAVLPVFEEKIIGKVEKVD
UniProt P49674: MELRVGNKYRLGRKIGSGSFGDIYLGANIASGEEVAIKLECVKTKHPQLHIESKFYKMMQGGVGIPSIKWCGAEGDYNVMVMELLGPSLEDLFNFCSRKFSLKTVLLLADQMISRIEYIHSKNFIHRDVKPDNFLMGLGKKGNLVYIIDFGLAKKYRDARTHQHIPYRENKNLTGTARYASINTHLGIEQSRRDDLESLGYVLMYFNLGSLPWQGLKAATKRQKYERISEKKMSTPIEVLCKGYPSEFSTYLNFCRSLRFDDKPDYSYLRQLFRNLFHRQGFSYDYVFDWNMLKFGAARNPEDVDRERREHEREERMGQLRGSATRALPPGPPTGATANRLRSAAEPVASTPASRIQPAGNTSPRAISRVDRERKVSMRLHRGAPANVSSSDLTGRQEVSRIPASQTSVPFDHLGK

T1: N-HA-tagged DVL-1 K34Q mutant (human) (UniProt O14640)
T1 sequence: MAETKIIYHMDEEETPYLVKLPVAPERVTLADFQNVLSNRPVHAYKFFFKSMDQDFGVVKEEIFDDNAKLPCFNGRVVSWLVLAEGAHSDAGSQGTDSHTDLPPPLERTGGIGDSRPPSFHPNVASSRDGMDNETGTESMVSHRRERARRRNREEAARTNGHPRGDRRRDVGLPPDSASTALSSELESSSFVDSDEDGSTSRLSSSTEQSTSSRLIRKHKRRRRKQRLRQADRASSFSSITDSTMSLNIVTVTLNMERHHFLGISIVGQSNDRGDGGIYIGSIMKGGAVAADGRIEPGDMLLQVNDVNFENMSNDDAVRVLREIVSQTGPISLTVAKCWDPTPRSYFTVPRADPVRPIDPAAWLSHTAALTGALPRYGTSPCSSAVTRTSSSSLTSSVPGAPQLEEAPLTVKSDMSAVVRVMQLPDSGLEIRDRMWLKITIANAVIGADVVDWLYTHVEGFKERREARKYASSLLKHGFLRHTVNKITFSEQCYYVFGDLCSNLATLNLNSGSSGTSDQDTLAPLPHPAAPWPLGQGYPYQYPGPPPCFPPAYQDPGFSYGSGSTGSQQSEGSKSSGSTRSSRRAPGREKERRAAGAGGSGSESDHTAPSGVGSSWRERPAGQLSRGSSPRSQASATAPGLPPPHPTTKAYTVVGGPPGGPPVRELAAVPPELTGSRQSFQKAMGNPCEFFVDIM

T2: N-HA-tagged DVL-1 K34R mutant (human) (UniProt O14640)
T2 sequence: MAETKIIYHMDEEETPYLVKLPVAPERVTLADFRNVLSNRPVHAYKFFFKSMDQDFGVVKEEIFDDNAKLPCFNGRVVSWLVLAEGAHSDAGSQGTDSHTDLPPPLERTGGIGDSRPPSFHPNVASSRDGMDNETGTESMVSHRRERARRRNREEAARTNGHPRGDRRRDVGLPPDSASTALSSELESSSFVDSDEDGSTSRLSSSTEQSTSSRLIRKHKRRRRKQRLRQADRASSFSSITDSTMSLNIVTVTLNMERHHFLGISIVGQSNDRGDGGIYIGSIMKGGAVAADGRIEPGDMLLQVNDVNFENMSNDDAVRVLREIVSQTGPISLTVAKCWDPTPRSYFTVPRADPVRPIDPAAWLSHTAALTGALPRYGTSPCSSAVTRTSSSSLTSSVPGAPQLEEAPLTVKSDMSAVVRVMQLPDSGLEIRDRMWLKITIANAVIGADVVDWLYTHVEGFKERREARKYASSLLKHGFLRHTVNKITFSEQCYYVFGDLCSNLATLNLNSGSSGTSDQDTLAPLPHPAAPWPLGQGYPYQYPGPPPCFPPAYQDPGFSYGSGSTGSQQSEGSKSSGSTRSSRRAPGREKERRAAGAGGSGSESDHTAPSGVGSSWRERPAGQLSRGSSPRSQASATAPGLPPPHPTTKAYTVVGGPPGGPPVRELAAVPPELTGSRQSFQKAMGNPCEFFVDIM

T3: N-terminal HA-epitope tagged DVL-1 wild type (human) (UniProt O14640)
T3 sequence: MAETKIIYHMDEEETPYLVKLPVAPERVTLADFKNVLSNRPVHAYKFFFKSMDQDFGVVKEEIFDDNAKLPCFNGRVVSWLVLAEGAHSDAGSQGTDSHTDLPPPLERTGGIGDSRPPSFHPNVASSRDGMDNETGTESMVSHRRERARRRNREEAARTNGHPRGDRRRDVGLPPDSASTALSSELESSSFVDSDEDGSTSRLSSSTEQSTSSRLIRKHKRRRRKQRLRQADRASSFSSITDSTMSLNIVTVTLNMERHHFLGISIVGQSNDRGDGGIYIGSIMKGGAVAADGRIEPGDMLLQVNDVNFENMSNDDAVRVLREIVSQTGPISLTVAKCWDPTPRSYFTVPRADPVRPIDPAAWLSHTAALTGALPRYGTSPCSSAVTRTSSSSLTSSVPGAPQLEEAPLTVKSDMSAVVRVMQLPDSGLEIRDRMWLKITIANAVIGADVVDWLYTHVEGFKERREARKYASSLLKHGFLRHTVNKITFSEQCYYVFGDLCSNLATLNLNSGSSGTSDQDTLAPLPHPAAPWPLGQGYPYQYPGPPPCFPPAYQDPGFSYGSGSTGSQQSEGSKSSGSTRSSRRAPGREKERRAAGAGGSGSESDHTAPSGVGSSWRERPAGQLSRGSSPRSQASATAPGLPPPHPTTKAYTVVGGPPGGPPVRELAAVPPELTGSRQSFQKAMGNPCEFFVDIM


Key:
[1] = molecular target: T1, N-HA-tagged DVL-1 K34Q mutant (human); test: co-IP; HEK293 cells stably expressing HA-DVL-1 WT, K34R or K34Q; immunoprecipitation with HA-tag antibody and Protein A Dynabeads, blotted for DVL-2 and CK1e; lysis buffer 25 mM Tris pH 7.4, 150 mM NaCl, 1 mM EDTA, 1% NP-40, 5% glycerol; 4°C
[2] = molecular target: T2, N-HA-tagged DVL-1 K34R mutant (human); test: as above
[3] = molecular target: T3, N-terminal HA-epitope tagged DVL-1 wild type (human); test: as above
[4] = molecular target: β-catenin (human (endogenous in HEK293)) (UniProt P35222); test: co-IP; reciprocal co-IP: HEK293 cells stably expressing HA-DVL-1 WT, K34R or K34Q; binding partners (Axin1, DVL3, β-catenin, FZD7) pulled down and blotted for HA-tag; lysis buffer 25 mM Tris pH 7.4, 150 mM NaCl, 1 mM EDTA, 1% NP-40, 5% glycerol; 4°C
[5] = molecular target: Axin1 (human (endogenous in HEK293)) (UniProt O15169); test: as above

binding [1] | binding [2] | binding [3] | binding [4] | binding [5] | Molecule
binds | binds | binds | – | – | casein kinase 1 (CK1e) (from UniProt P49674 1-416) (enzyme)
– | – | – | binds | – | N-terminal HA-epitope tagged DVL-1 wild type (protein, UniProt O14640 1-695) MAETKIIYHMDEEETPYLVKLPVAPERVTLADFKNVLSNRPVHAYKFFFKSMDQDFGVVKEEIFDDNAKLPCFNGRVVSWLVLAEGAHSDAGSQGTDSHTDLPPPLERTGGIGDSRPPSFHPNVASSRDGMDNETGTESMVSHRRERARRRNREEAARTNGHPRGDRRRDVGLPPDSASTALSSELESSSFVDSDEDGSTSRLSSSTEQSTSSRLIRKHKRRRRKQRLRQADRASSFSSITDSTMSLNIVTVTLNMERHHFLGISIVGQSNDRGDGGIYIGSIMKGGAVAADGRIEPGDMLLQVNDVNFENMSNDDAVRVLREIVSQTGPISLTVAKCWDPTPRSYFTVPRADPVRPIDPAAWLSHTAALTGALPRYGTSPCSSAVTRTSSSSLTSSVPGAPQLEEAPLTVKSDMSAVVRVMQLPDSGLEIRDRMWLKITIANAVIGADVVDWLYTHVEGFKERREARKYASSLLKHGFLRHTVNKITFSEQCYYVFGDLCSNLATLNLNSGSSGTSDQDTLAPLPHPAAPWPLGQGYPYQYPGPPPCFPPAYQDPGFSYGSGSTGSQQSEGSKSSGSTRSSRRAPGREKERRAAGAGGSGSESDHTAPSGVGSSWRERPAGQLSRGSSPRSQASATAPGLPPPHPTTKAYTVVGGPPGGPPVRELAAVPPELTGSRQSFQKAMGNPCEFFVDIM
– | – | – | binds | – | N-HA-tagged DVL-1 K34R mutant (protein, UniProt O14640 1-695) MAETKIIYHMDEEETPYLVKLPVAPERVTLADFRNVLSNRPVHAYKFFFKSMDQDFGVVKEEIFDDNAKLPCFNGRVVSWLVLAEGAHSDAGSQGTDSHTDLPPPLERTGGIGDSRPPSFHPNVASSRDGMDNETGTESMVSHRRERARRRNREEAARTNGHPRGDRRRDVGLPPDSASTALSSELESSSFVDSDEDGSTSRLSSSTEQSTSSRLIRKHKRRRRKQRLRQADRASSFSSITDSTMSLNIVTVTLNMERHHFLGISIVGQSNDRGDGGIYIGSIMKGGAVAADGRIEPGDMLLQVNDVNFENMSNDDAVRVLREIVSQTGPISLTVAKCWDPTPRSYFTVPRADPVRPIDPAAWLSHTAALTGALPRYGTSPCSSAVTRTSSSSLTSSVPGAPQLEEAPLTVKSDMSAVVRVMQLPDSGLEIRDRMWLKITIANAVIGADVVDWLYTHVEGFKERREARKYASSLLKHGFLRHTVNKITFSEQCYYVFGDLCSNLATLNLNSGSSGTSDQDTLAPLPHPAAPWPLGQGYPYQYPGPPPCFPPAYQDPGFSYGSGSTGSQQSEGSKSSGSTRSSRRAPGREKERRAAGAGGSGSESDHTAPSGVGSSWRERPAGQLSRGSSPRSQASATAPGLPPPHPTTKAYTVVGGPPGGPPVRELAAVPPELTGSRQSFQKAMGNPCEFFVDIM
– | – | – | binds | binds | N-HA-tagged DVL-1 K34Q mutant (protein, UniProt O14640 1-695) MAETKIIYHMDEEETPYLVKLPVAPERVTLADFQNVLSNRPVHAYKFFFKSMDQDFGVVKEEIFDDNAKLPCFNGRVVSWLVLAEGAHSDAGSQGTDSHTDLPPPLERTGGIGDSRPPSFHPNVASSRDGMDNETGTESMVSHRRERARRRNREEAARTNGHPRGDRRRDVGLPPDSASTALSSELESSSFVDSDEDGSTSRLSSSTEQSTSSRLIRKHKRRRRKQRLRQADRASSFSSITDSTMSLNIVTVTLNMERHHFLGISIVGQSNDRGDGGIYIGSIMKGGAVAADGRIEPGDMLLQVNDVNFENMSNDDAVRVLREIVSQTGPISLTVAKCWDPTPRSYFTVPRADPVRPIDPAAWLSHTAALTGALPRYGTSPCSSAVTRTSSSSLTSSVPGAPQLEEAPLTVKSDMSAVVRVMQLPDSGLEIRDRMWLKITIANAVIGADVVDWLYTHVEGFKERREARKYASSLLKHGFLRHTVNKITFSEQCYYVFGDLCSNLATLNLNSGSSGTSDQDTLAPLPHPAAPWPLGQGYPYQYPGPPPCFPPAYQDPGFSYGSGSTGSQQSEGSKSSGSTRSSRRAPGREKERRAAGAGGSGSESDHTAPSGVGSSWRERPAGQLSRGSSPRSQASATAPGLPPPHPTTKAYTVVGGPPGGPPVRELAAVPPELTGSRQSFQKAMGNPCEFFVDIM
